Laboratory results reported in US20200163954A1 (Exelixis, Inc., priority 2014, published 2020).
At least one read-out could not be matched to a standard name with certainty.

Amino acid sequences for entries named in this document (tags omitted). Residues count along the entry.
UniProt P08581, 25-1390: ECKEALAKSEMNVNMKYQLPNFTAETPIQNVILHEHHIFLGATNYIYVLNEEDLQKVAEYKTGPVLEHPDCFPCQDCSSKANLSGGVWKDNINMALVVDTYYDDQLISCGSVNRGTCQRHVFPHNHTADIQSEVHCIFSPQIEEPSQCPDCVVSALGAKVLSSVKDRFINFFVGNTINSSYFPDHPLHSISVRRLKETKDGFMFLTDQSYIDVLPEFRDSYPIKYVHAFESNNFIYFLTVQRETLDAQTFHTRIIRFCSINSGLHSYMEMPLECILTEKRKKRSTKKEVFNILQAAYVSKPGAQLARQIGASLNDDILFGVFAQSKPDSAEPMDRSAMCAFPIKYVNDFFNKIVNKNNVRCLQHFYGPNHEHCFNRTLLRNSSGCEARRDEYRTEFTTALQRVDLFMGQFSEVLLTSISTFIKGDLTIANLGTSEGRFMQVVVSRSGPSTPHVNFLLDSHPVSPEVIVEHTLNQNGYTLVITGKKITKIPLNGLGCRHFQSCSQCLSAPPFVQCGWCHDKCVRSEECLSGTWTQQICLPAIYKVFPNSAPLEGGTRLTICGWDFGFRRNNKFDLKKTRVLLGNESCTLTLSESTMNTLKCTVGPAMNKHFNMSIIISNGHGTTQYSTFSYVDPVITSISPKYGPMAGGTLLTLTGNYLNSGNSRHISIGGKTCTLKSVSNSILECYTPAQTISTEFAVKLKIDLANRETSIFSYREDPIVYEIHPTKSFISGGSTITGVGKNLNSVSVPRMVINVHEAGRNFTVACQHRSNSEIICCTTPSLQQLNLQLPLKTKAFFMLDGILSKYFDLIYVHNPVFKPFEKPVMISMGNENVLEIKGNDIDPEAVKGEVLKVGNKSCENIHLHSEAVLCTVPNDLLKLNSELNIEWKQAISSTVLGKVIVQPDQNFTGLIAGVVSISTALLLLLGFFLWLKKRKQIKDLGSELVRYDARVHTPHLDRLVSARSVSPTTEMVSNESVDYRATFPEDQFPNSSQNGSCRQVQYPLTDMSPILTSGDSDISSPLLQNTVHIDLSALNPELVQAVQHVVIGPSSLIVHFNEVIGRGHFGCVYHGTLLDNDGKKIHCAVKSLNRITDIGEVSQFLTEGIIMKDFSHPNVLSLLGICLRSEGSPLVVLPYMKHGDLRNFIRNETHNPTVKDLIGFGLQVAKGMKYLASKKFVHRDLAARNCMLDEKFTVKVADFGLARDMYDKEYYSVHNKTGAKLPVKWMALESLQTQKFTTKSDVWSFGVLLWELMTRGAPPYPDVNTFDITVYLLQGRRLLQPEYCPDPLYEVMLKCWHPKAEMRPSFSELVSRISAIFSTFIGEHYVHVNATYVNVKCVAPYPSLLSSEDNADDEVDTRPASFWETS

Target: T1, c-Met (Homo sapiens, UniProt P08581)
T1 construct: purchased EMD Millipore (Kinase Profiler service)
Test: Kinase activity (EMD Millipore Kinase Profiler), c-Met
Format: biochemical

SMILES: COc1cc2c(Oc3ccc(NC(=O)C4(C(=O)O)CC4)cc3)ccnc2cc1OS(=O)(=O)O [Compound 2b]
- c-Met Std (IC50), result in words: Not Detected
